This is one part of the list.
These sequences were tested on KLF4 + histone octamer (assay: EMSA with sequencing). Settings: 10 mM Tris-Cl pH 7.5, 50 mM NaCl, 1 mM DTT, 0.25 mg/ml BSA, 2 mM MgCl2, 0.025% Nonidet P-40, 5% glycerol; 28 nM nucleosome library; 10 min on ice then 30 min …; high values mean tight binding; double strand, one strand shown.

Row | Sequence | binding signal (log2 relative supershift)
1 | GATGGACCCTATACGCGGCCTAATGTGCCTTTGTTAGCAATATCACTTATTTTCTTCAACTGATGTTGAACACATTGTGCTCTCCCAAGCAGGTCTTAAGTCATGCCACGTCAGGGCTGGACCGCTCTTCTTATTCTGCACATGGGCCCTCACTTAGGCAGGGGTGCGGTCAACATTGAAAGAGGTTCCATTCTAGGAATGTAGTGGTTATGCCAGTCGGATAGTGTTCC | 0.858
2 | GATGGACCCTATACGCGGCTCTATAGAAGGGTGCGCCCTTACAGATGGAACAATGGTGAGCACACACTTGGACAAGGGAGGGGAAGGAGTTCTTATCCCTGATGCACATGGACCCTGCTGCTGTGCCATTCCCCCATTGGCTAGGGTTAGACTGCACAGGCTAAAGTAATTCCAATTGGCTACTTTAAAGAGAATGACAGGGTGAGTGCTTGCCAGTCGGATAGTGTTCC | 2.5
3 | GATGGACCCTATACGCGGCCCACAGGACTGGAGCCATCCCCAAGGTGAGTGTCAGGATGTTTTGAAACTGGGACACACTGTACAGGGGTGAACAAAGGAATCTGCTTTTCAATACCACACTGCCTGCTGCAACCAAATGTCACTGCAGGGCTTAACAGTGAGTAAATGCTGTGTGTGTAAATGCTTCTTCTATGTTTAAAAAACAGGAAATGCCAGTCGGATAGTGTTCC | 0.955
4 | GATGGACCCTATACGCGGCCTTCTGGCATGGACTTTGCCCCAGAGGGACACACCTAGCTTCTTGCGGGAGTGGGCAAGGAGGAGCACAGTTGGAACTACAGGGAGGGTGGTGGGGCTTGGCCCCCATGCAGTAGGCACATGGCAGGTGTTCCCTAAGGAGGAAACCTGGCCCTCCTCAGTCTTTCCTGTGAGACTGAGTAGGCAGAGTGGTGCCAGTCGGATAGTGTTCC | 2.21
5 | GATGGACCCTATACGCGGCGGGAATACGTGCATGAGTGGGGTGTGTGTGCATGTGTGTGAATGTGTGTGTGCATGTGCAAAGCAACTCTGTGTATGAGGCAAACCTGAGTGTGTGCGGTGCGTGTGAATGCCTGCATGTGCGCGTGCGTGTGTGAAGAGTCTGCGTGGGGGAACACGTGTGTAAAGGCATGGATGTGCACGTGTGTGTGCTGCCAGTCGGATAGTGTTCC | 2.05
6 | GATGGACCCTATACGCGGCCCTAGTAGCTGGGAGTTCCCTCTCTGGAGGCCTGTTCCCATTTCTCCAGAGACAATGCTGCATCACAATGTTCCAGATCTTTCACAGGTCATTGACAGGCATCCTATAGGACTTCCCCCCAATACCCCCACCCCGAGAACTCTTTCAGTGGGTTCTCCAGTGACTTAGAAACAAATTTTTTCCTTGGTGGGTGCCAGTCGGATAGTGTTCC | 2.55
7 | GATGGACCCTATACGCGGCGCCGTTGTCTTCTTATGCAAGAATAAGGTACGTCTTTCCATCCACTCACGTCTATTTAATTTGACTTTGCATTACACAGAAAGCTGGTCTTGGTCTGTCTACCTCGGCATCTAGTTGTCCTCACTGCCCCCTAGCCGACCCCACCCCATCTGACTGACTACCCCATCACAGAGTACTTTTATTTACGTTTTTGCCAGTCGGATAGTGTTCC | 0.732
8 | GATGGACCCTATACGCGGCCTCCTAAGAGGCTTCTCATAGCAAACTCCCCCTCCTTCCGCTGAGAGGGTTTGATGGCAGGCAACAGATGACTTAGGACTCCTCTAATGGTCTTTAGGAACAGGAAGGCACCACCACCATTATCATGCAACATTGTTCTGGAAGTGCAAGCCAATGCAATTAGATAAGGAGAAAAATAAGAGGTAAATGTATGCCAGTCGGATAGTGTTCC | 1.71
9 | GATGGACCCTATACGCGGCAGAATTTCAGGACAATGACTGCAGAACATTAAACTAAGCATGGGTCCTTCTGAGTACTGGGCCCTGTGTGACTGCAGAGGCCTCACACTCATGAAGCTGGCCCTGCATTCATGTGGAAATGTGTAAAAAATAGATATTGAAGTCGGGAGAGCTGGTGAAAGGTCATTTTTGGAGATGTAGGCTTGGGAATTTGCCAGTCGGATAGTGTTCC | 0.348
10 | GATGGACCCTATACGCGGCAAGAATAGATGTTCTGGTAAAGGTCCCTGAGAGACACTAAGGTTGAATCTTGCTTGGGAGACATCCTGTGTATGTGCAGCAGATGGCAGTCTGCATTGGAATGGATCACAAGTCCAGTTTGTGCCACTTTTGTTCCGCTGTATGGTATGGTAAATTACAACCAGGGGGGCATAACCAGTTACAGCACTGCCTGCCAGTCGGATAGTGTTCC | 1.32
11 | GATGGACCCTATACGCGGCCATTCCCCAAGCCCTCCCAGTTATCCATGATCAGGAGGCTGTCTCTTTGCCTGCCTTCTCCAACCCTGCACCCAGCCTCTTTGCCTCTGCAGGACTTCCCCAGAAAGTTGAATCTTCTTCCCTTTATAGAGCGGAGCAGTTCAGCTCAGACTTGTAGGCACACCTGTGCAGCACAGACCAACGTCTCTCCTTGCCAGTCGGATAGTGTTCC | 2.22
12 | GATGGACCCTATACGCGGCTCCTACAATCAGTGTGAACATGGGCAACTCAGAAAATTTCTAATTAATTCATCAAATACCTTTTAAGGACCTATTGCGTCTAAGGTTCTGTGCTAGGCTGTAAGGCTCAATGTCTTACATTGTAATGCAGGGACAATACCAACTATGGCAGAGAGTTGTGATGATCAAAGTGGGCAAAGATTACAGATTATTGCCAGTCGGATAGTGTTCC | 0.812
13 | GATGGACCCTATACGCGGCTTGTTGTTTGTACCTTTAAGTCCTATCCTGTATTTATGGATGAAATGATGTCATGTCTGAGATTTGCTTCACAATAATGCAGTAGTGGGCAAAGAAGGGTGGAAGTGCAGATGACACGCAATAGGCTGTGTGCTGGTTAATTTTGAGGGTGGTTGATAGATATGTGTGGCTTATTGTACAGTTCCCTTTTTTGCCAGTCGGATAGTGTTCC | 1.1
14 | GATGGACCCTATACGCGGCGATACCACAAAAAGCACAGTTTCATAGGTCAGTTTAATTCTATAGCAGTCTTTTTTGTCAGCATAGCTGGCGATTCCATCTGTTTTAATTTAAGATTCACCCCAGCCATGCCTCTGTAGCAGGTGACACGTGCACACACACACACACCCCCACACCCACACACTGTTTCCTTATGTAACATACATGATGTATGCCAGTCGGATAGTGTTCC | 0.253
15 | GATGGACCCTATACGCGGCAGACCAGAACTGAATGAAGTGAAAACATTTTCAAATGCAAGTGGCAGGCAAACTGCCCCACCCTATCCTGGAAGACAATACAAAGAGGGATGGGGGAGAGAAGAAAATAAGTGATTCTCCTACACACCCAGCCCATGCCATGCTAATCCCTTTTTGAGGACCACTGGTTTTAAACAAACTCTCTTTTGCTGTGCCAGTCGGATAGTGTTCC | 2.19
16 | GATGGACCCTATACGCGGCGCACTGTAGCTGTCGACTTTGTTTCAGACACCAGCCTTCCCCCACACTTCTGCATGACCCAGGTCACTATGAGACACCCAGACGTGTTGATGACAGTGACATTTGTCCTAGAGTGACCACACTGATCCTTTCTAGCACTGTGAAGAGTGTGCAGCTTCCTCTGAACCAAGGTTTCCAAAAGGTTTTGATATTGCCAGTCGGATAGTGTTCC | 0.538
17 | GATGGACCCTATACGCGGCTGTGTGACTCAGCAGAGACAGCCATAATCTCCCTGGGACTATCACTCCATTGGACTGGGAACCACACCACCATCCCCCACAGCAGCTGCAGCAAGCCCCGCCCAAGATGAGGCTGAGCTCAGACAGGCCTATCCCTGCCCCAACCTGCTGGTCTTTCTCTATCCACCCTGGTAGCCAAAGGAAAAGGTCATTGCCAGTCGGATAGTGTTCC | 1.68
18 | GATGGACCCTATACGCGGCCCTGGAGAATCTCTGACCCTCCCCACAAGTGTTTACATCAGATGCTTTTGTAAACATGAAGGAACCTTCCCAGGGCCTTGTCTGGGCTTGCCCACAATGTACTGGAGGCCCGCCTGTGCACTGGGAGAATGGGGTGGAGCCACTGGGATTTGCGCCTTATGCAGAGGGGAGGAGCCTGGCCTCTTCAGCTCTGCCAGTCGGATAGTGTTCC | 2.6
19 | GATGGACCCTATACGCGGCTCTTTAAAGAAAAAAAAAATGGCTATTGTTTTCCTGAGACCTCCCACATGTTGGGAAATAACTTACAGTGAGGCAGTTTCCTTGTGGTGTAGTCTGAACTCTTGAATAGCTGGCTGTGTATGGATTGCGGCAGTCACCATAACAATGGGCTCATCTTAAAACGTTCATTTAGATTCATTATTGGAACTGTGTGCCAGTCGGATAGTGTTCC | 1.5
20 | GATGGACCCTATACGCGGCCCTACCTGTTTCTTGCAGTCGTGTATTCTGGGACTTTCCTCATGGTGGGACCTTTCACACAACCCTCCTCTTCAAGCTGGGCAAGCCTGTTCTTGTCTCTCTTGTGCTTCAGGAGGAAGTACTGGAGAAGATGTAAGTTTTTAAGCCTTCATTTGGGGGGATGTGGAATGAAGGCAAAGGAGAGATGGGCATGCCAGTCGGATAGTGTTCC | 3.1
21 | GATGGACCCTATACGCGGCATGGCCTGAGACTCCTGGCCTCTTTCCAACCTAGGGACCACCTGCCACCCCACCCAAACCTCAAGCATGCTGTTGTGTGGCTTCTGCATCCACCCCACCTCAGCTGTGTCTGCGTCACTGGGCAGATGTAGGGATCCCCGTGTACCATGCGCACATGGCCTTGTTTGTGATTAGTGGGGCCCCGAGGGAAATGCCAGTCGGATAGTGTTCC | 1.97
22 | GATGGACCCTATACGCGGCTGTGATGTCAGTTTGTATGTACGAGAACAGTGGGTGTGGGCAGTAAAGGGGTGGGATGAAATGAGCATCTGTGTGTGTGTTTGCGCATGTGCATCATGTGTACACACATATGCACACACATGCCTAGTATCTGCTCTCTCCTTATTCTAGATTACCCCTACCCCCTTTTATTAAAGACTCAAGAGGATCTTTGCCAGTCGGATAGTGTTCC | 1.87
23 | GATGGACCCTATACGCGGCACTCCAGAGGCAGAGATGGGACGACTGCTTGAGCCCAAGAGTTTAGTTAGAAGCTGCAGAGAGCTCTGGTCATGGCACTGCACTCCAGCCTGGGCAACAGAGCAAGACCTCATCTCCTGCCTGGGCGTGCTGGTTCATGCCTGTAATCCCAGCACTTTGGGAGACCGAAGCACATGGATCACTTGAGGTCATGCCAGTCGGATAGTGTTCC | 0.116
24 | GATGGACCCTATACGCGGCTCACACACCCATCCTAACATTGTCAAATGTGTCACACACCCACCTTACCATTGTCATCTATCCCACCATTGTCAAGTGTGTCATGCACCCATCCTACCATTGTCACCCATCATACCATTGTCAAGCAACTGTTTAACAATGAAAAGATTTATAAGATGGAAATAGATTATCAGATGGATTTAAGGCCTTGATGCCAGTCGGATAGTGTTCC | 1.99

Exported comma-delimited: entries from further up
Row,Sequence,binding signal (log2 relative supershift)
2,GATGGACCCTATACGCGGCTCTATAGAAGGGTGCGCCCTTACAGATGGAACAATGGTGAGCACACACTTGGACAAGGGAGGGGAAGGAGTTCTTATCCCTGATGCACATGGACCCTGCTGCTGTGCCATTCCCCCATTGGCTAGGGTTAGACTGCACAGGCTAAAGTAATTCCAATTGGCTACTTTAAAGAGAATGACAGGGTGAGTGCTTGCCAGTCGGATAGTGTTCC,2.5
19,GATGGACCCTATACGCGGCTCTTTAAAGAAAAAAAAAATGGCTATTGTTTTCCTGAGACCTCCCACATGTTGGGAAATAACTTACAGTGAGGCAGTTTCCTTGTGGTGTAGTCTGAACTCTTGAATAGCTGGCTGTGTATGGATTGCGGCAGTCACCATAACAATGGGCTCATCTTAAAACGTTCATTTAGATTCATTATTGGAACTGTGTGCCAGTCGGATAGTGTTCC,1.5
